From patent US20060153853A1 come the findings set out here.

Protein sequences, listed by entry. Tags and fused reporters are not part of them. Lines headed by an entry give the natural chain unless they say otherwise; changes in a name come on top. Chains listed by the source or under a name are the forms on record and can include a tag or linker. Residues count along the entry.
UniProt P05019, residues 49-118: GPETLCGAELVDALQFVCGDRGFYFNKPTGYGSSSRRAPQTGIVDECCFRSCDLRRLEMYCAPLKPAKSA
K227AHis hIGFBP-2 (P18065, form named): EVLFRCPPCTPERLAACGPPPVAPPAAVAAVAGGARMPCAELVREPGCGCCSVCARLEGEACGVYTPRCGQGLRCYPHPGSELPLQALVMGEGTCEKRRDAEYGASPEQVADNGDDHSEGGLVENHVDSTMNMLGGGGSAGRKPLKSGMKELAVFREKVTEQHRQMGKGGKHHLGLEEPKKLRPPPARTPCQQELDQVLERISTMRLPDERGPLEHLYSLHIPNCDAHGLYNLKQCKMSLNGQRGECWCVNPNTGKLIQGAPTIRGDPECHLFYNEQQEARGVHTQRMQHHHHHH

The target of assay [1] is IGF-I (insulin-like growth factor I) (UniProt P05019). Nature of the assay: SPR (BIAcore) on immobilised IGF-I. On the technique in general: SPR reads the build-up and loss of mass on a sensor chip optically.
For assay [2] the target is unchanged. Nature of the assay: SPR (BIAcore), IGF-I coupled to the sensor chip, IGFBP injected in solution, control surface subtracted.

These are yes or no findings as the source states them, for the method shown. Some entries that bind do so weakly or less than the wild type.

On to “K227AHis hIGFBP-2 (from UniProt P18065 37-325)”, for which the binding entry in assay [1] and in assay [2] was “binds” each time.
